Where a name gives a salt, the structure may show the parent alone. This is one part of the list. Most values lie at the level of the controls, where differences are scatter.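 Using flow cytometry, the assay measures the median γH2AX antibody signal in S-phase Reh cells (a human leukemia line). Each score is the number of standard deviations from the median difference of paired plate sets. Candidate hits scored above 2.5; compounds scoring below -2 lowered MK1775-induced damage.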
test system: Reh; test: Z' of S-phase gammaH2AX difference (drug + MK1775 minus drug alone) (Z-score); higher = stronger synergistic S-phase DNA damage with MK1775; settings: MK1775 concentration 400 nM; first compound 10 µM; 4 h

Compound	Z' of S-phase gammaH2AX difference (Z-score)
CCCN1CCc2cc(O)cc3c2[C@H]1Cc1ccc(O)c(O)c1-3 [R(-)-2,10,11-Trihydroxy-N-propylnoraporphine hydrobromide] + C=CCn1c(=O)c2cnc(Nc3ccc(N4CCN(C)CC4)cc3)nc2n1-c1cccc(C(C)(C)O)n1 [MK1775]	inactive: -0.236
C[C@@]12N[C@@H](Cc3ccccc31)c1ccccc12 [(-)-MK-801 hydrogen maleate] + C=CCn1c(=O)c2cnc(Nc3ccc(N4CCN(C)CC4)cc3)nc2n1-c1cccc(C(C)(C)O)n1 [MK1775]	inactive: 0.398
C#CCN[C@H](C)Cc1ccccc1 [R-(-)-Desmethyldeprenyl hydrochloride] + C=CCn1c(=O)c2cnc(Nc3ccc(N4CCN(C)CC4)cc3)nc2n1-c1cccc(C(C)(C)O)n1 [MK1775]	inactive: -0.0607
CCCN(CCC)[C@@H]1CCc2cccc(O)c2C1 [R-(+)-8-Hydroxy-DPAT hydrobromide] + C=CCn1c(=O)c2cnc(Nc3ccc(N4CCN(C)CC4)cc3)nc2n1-c1cccc(C(C)(C)O)n1 [MK1775]	inactive: -0.0947
Cc1nnc2ccc(-c3cccc(C(F)(F)F)c3)nn12 + C=CCn1c(=O)c2cnc(Nc3ccc(N4CCN(C)CC4)cc3)nc2n1-c1cccc(C(C)(C)O)n1 [MK1775]	inactive: 1.31
CC1(C(=O)O)C2CCC(O2)C1(C)C(=O)O (stereo unspecified) [Cantharidic Acid] + C=CCn1c(=O)c2cnc(Nc3ccc(N4CCN(C)CC4)cc3)nc2n1-c1cccc(C(C)(C)O)n1 [MK1775]	inactive: 0.825
CC(C)(C)NCC(O)c1ccccc1Cl (stereo unspecified) [Tulobuterol hydrochloride] + C=CCn1c(=O)c2cnc(Nc3ccc(N4CCN(C)CC4)cc3)nc2n1-c1cccc(C(C)(C)O)n1 [MK1775]	inactive: -0.505
CC[C@H]1CN2CCc3cc(OC)c(OC)cc3[C@@H]2C[C@@H]1C[C@H]1NCCc2cc(OC)c(OC)cc21 [Emetine dihydrochloride hydrate] + C=CCn1c(=O)c2cnc(Nc3ccc(N4CCN(C)CC4)cc3)nc2n1-c1cccc(C(C)(C)O)n1 [MK1775]	inactive: -2.69
COc1cc([C@@H]2c3cc4c(cc3[C@H](O)[C@H]3COC(=O)[C@H]23)OCO4)cc(OC)c1OC [Podophyllotoxin] + C=CCn1c(=O)c2cnc(Nc3ccc(N4CCN(C)CC4)cc3)nc2n1-c1cccc(C(C)(C)O)n1 [MK1775]	inactive: -0.0388
CS(=N)(=O)CC[C@H](N)C(=O)O (stereo partly drawn) [L-Methionine sulfoximine] + C=CCn1c(=O)c2cnc(Nc3ccc(N4CCN(C)CC4)cc3)nc2n1-c1cccc(C(C)(C)O)n1 [MK1775]	inactive: 0.0679
CCCN(CCC)CCc1ccc(O)c(O)c1 [Dipropyldopamine hydrobromide] + C=CCn1c(=O)c2cnc(Nc3ccc(N4CCN(C)CC4)cc3)nc2n1-c1cccc(C(C)(C)O)n1 [MK1775]	inactive: -0.566
Ic1ccccc1CNC1C2CCN(CC2)C1C(c1ccccc1)c1ccccc1 [L-703,606 oxalate] + C=CCn1c(=O)c2cnc(Nc3ccc(N4CCN(C)CC4)cc3)nc2n1-c1cccc(C(C)(C)O)n1 [MK1775]	inactive: -0.801
NCCc1c[nH]c2ccc(O)cc12 [Serotonin hydrochloride] + C=CCn1c(=O)c2cnc(Nc3ccc(N4CCN(C)CC4)cc3)nc2n1-c1cccc(C(C)(C)O)n1 [MK1775]	inactive: -0.605
Clc1ccc(N2C[C@H]3CC[C@@H](C2)N3)nn1 + C=CCn1c(=O)c2cnc(Nc3ccc(N4CCN(C)CC4)cc3)nc2n1-c1cccc(C(C)(C)O)n1 [MK1775]	inactive: 0.129
NCCc1c[nH]c2ccccc12 [Tryptamine hydrochloride] + C=CCn1c(=O)c2cnc(Nc3ccc(N4CCN(C)CC4)cc3)nc2n1-c1cccc(C(C)(C)O)n1 [MK1775]	inactive: 0.114
CC[C@@H]1/C=C/C=C/C[C@H](C)[C@H](O)[C@](C)(O)C(=O)[C@H](C)[C@@H](O)[C@H](C)C(=O)[C@H](C)[C@@H](O)[C@H](C)/C=C/C(=O)O[C@H]2[C@@H](C)[C@@H](CC1)O[C@@]1(CC[C@@H](C)[C@@H](C[C@H](C)O)O1)[C@@H]2C [Oligomycin A] + C=CCn1c(=O)c2cnc(Nc3ccc(N4CCN(C)CC4)cc3)nc2n1-c1cccc(C(C)(C)O)n1 [MK1775]	inactive: 0.427
CCCN1CCC[C@@H](c2cccc(O)c2)C1 [S(-)-3PPP hydrochloride] + C=CCn1c(=O)c2cnc(Nc3ccc(N4CCN(C)CC4)cc3)nc2n1-c1cccc(C(C)(C)O)n1 [MK1775]	inactive: 0
Cc1ccc(S(=O)(=O)N[C@@H](CCCCN)C(=O)CCl)cc1 [Na-p-Tosyl-L-lysine chloromethyl ketone hydrochloride] + C=CCn1c(=O)c2cnc(Nc3ccc(N4CCN(C)CC4)cc3)nc2n1-c1cccc(C(C)(C)O)n1 [MK1775]	inactive: -0.502

Compound	Z' of S-phase gammaH2AX difference (Z-score)
O=C(Oc1ccc([N+](=O)[O-])cc1)N1CCC(C(O)(c2ccc3c(c2)OCO3)c2ccc3c(c2)OCO3)CC1 + C=CCn1c(=O)c2cnc(Nc3ccc(N4CCN(C)CC4)cc3)nc2n1-c1cccc(C(C)(C)O)n1 [MK1775]	inactive: 0.0643
Cc1cccc(C)c1NC1=NCCCS1 [Xylazine hydrochloride] + C=CCn1c(=O)c2cnc(Nc3ccc(N4CCN(C)CC4)cc3)nc2n1-c1cccc(C(C)(C)O)n1 [MK1775]	inactive: -0.214
CCNC(=O)[C@H]1O[C@@H](n2cnc3c(N)ncnc32)[C@H](O)[C@@H]1O [5'-N-Ethylcarboxamidoadenosine] + C=CCn1c(=O)c2cnc(Nc3ccc(N4CCN(C)CC4)cc3)nc2n1-c1cccc(C(C)(C)O)n1 [MK1775]	inactive: -0.26
Oc1ccc2c3c1O[C@H]1c4oc5ccccc5c4C[C@@]4(O)[C@@H](C2)N(CC2CC2)CC[C@]314 [Naltriben methanesulfonate] + C=CCn1c(=O)c2cnc(Nc3ccc(N4CCN(C)CC4)cc3)nc2n1-c1cccc(C(C)(C)O)n1 [MK1775]	inactive: 0.311
NC(=O)CN1CCCC1=O [Piracetam] + C=CCn1c(=O)c2cnc(Nc3ccc(N4CCN(C)CC4)cc3)nc2n1-c1cccc(C(C)(C)O)n1 [MK1775]	inactive: -0.602
NCc1cc(O)no1 [Muscimol hydrobromide] + C=CCn1c(=O)c2cnc(Nc3ccc(N4CCN(C)CC4)cc3)nc2n1-c1cccc(C(C)(C)O)n1 [MK1775]	inactive: 0.338
CC(=O)NBr [N-Bromoacetamide] + C=CCn1c(=O)c2cnc(Nc3ccc(N4CCN(C)CC4)cc3)nc2n1-c1cccc(C(C)(C)O)n1 [MK1775]	inactive: 0.107
CC(C)NP(=O)(NC(C)C)OP(=O)(NC(C)C)NC(C)C [Tetraisopropyl pyrophosphoramide] + C=CCn1c(=O)c2cnc(Nc3ccc(N4CCN(C)CC4)cc3)nc2n1-c1cccc(C(C)(C)O)n1 [MK1775]	inactive: 0.334
C=CCc1ccccc1OCC(O)CNC1(C)CCC(C(C)(C)NC(=O)CBr)CC1 (stereo unspecified) [Bromoacetyl alprenolol menthane] + C=CCn1c(=O)c2cnc(Nc3ccc(N4CCN(C)CC4)cc3)nc2n1-c1cccc(C(C)(C)O)n1 [MK1775]	inactive: -0.969
Cc1c2ccncc2c(C)c2c1[nH]c1ccccc12 [Ellipticine] + C=CCn1c(=O)c2cnc(Nc3ccc(N4CCN(C)CC4)cc3)nc2n1-c1cccc(C(C)(C)O)n1 [MK1775]	inactive: -1.72
CCCN(CCC)C1CCc2cccc(O)c2C1 (stereo unspecified) [(?)-8-Hydroxy-DPAT hydrobromide] + C=CCn1c(=O)c2cnc(Nc3ccc(N4CCN(C)CC4)cc3)nc2n1-c1cccc(C(C)(C)O)n1 [MK1775]	inactive: 1.31
CCCN1CCc2cccc3c2[C@H]1Cc1ccc(O)c(O)c1-3 [R(-)-Propylnorapomorphine hydrochloride] + C=CCn1c(=O)c2cnc(Nc3ccc(N4CCN(C)CC4)cc3)nc2n1-c1cccc(C(C)(C)O)n1 [MK1775]	inactive: -0.197
c1ccc2c(c1)[I+]c1ccccc1-2 [Diphenyleneiodonium chloride] + C=CCn1c(=O)c2cnc(Nc3ccc(N4CCN(C)CC4)cc3)nc2n1-c1cccc(C(C)(C)O)n1 [MK1775]	inactive: -0.498
CNc1ccc2oc(C[C@H]3O[C@@]4(CC[C@H]3C)O[C@H]([C@H](C)C(=O)c3ccc[nH]3)[C@H](C)C[C@H]4C)nc2c1C(=O)O [Calcimycin] + C=CCn1c(=O)c2cnc(Nc3ccc(N4CCN(C)CC4)cc3)nc2n1-c1cccc(C(C)(C)O)n1 [MK1775]	inactive: -1.05
COc1ccc2c(c[n+](C)c3c4cc5c(cc4ccc23)OCO5)c1OC [Chelerythrine chloride] + C=CCn1c(=O)c2cnc(Nc3ccc(N4CCN(C)CC4)cc3)nc2n1-c1cccc(C(C)(C)O)n1 [MK1775]	inactive: 0.635
C[C@H](Cc1ccc2c(c1)OC(C(=O)O)(C(=O)O)O2)NC[C@H](O)c1cccc(Cl)c1 + C=CCn1c(=O)c2cnc(Nc3ccc(N4CCN(C)CC4)cc3)nc2n1-c1cccc(C(C)(C)O)n1 [MK1775]	inactive: 0.892
CCC1(c2ccc(N)cc2)CCC(=O)NC1=O (stereo unspecified) [(?)-p-Aminoglutethimide] + C=CCn1c(=O)c2cnc(Nc3ccc(N4CCN(C)CC4)cc3)nc2n1-c1cccc(C(C)(C)O)n1 [MK1775]	inactive: -0.254
CCC1(c2ccc(N)cc2)CCC(=O)NC1=O (stereo unspecified) [Aminoglutethimide (Cytadren)] + C=CCn1c(=O)c2cnc(Nc3ccc(N4CCN(C)CC4)cc3)nc2n1-c1cccc(C(C)(C)O)n1 [MK1775]	inactive: 0.446

Two records picked at random from those above, as already listed:
Compound	Z' of S-phase gammaH2AX difference (Z-score)
NCc1cc(O)no1 [Muscimol hydrobromide] + C=CCn1c(=O)c2cnc(Nc3ccc(N4CCN(C)CC4)cc3)nc2n1-c1cccc(C(C)(C)O)n1 [MK1775]	inactive: 0.338
CC(C)NP(=O)(NC(C)C)OP(=O)(NC(C)C)NC(C)C [Tetraisopropyl pyrophosphoramide] + C=CCn1c(=O)c2cnc(Nc3ccc(N4CCN(C)CC4)cc3)nc2n1-c1cccc(C(C)(C)O)n1 [MK1775]	inactive: 0.334

— the supplement of paper PMC5355238
